Results deposited as PubChem BioAssay AID1159578 (Peter MacCallum Cancer Centre, 2015)
Purpose: 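siRNA pools altering how lymphatic endothelial cells close a scratch wound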 (primary screen). System: human lymphatic endothelial cells. Knock-down reagent: siRNA pool against human genes, 40 nM. Duration: 48 h after transfection. Read-out: 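High-content imaging of dye-stained cells in a scratch assay measures filled wound area and nuclei per well; duplicate means given as ratio to mock and robust z-score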. Reading the numbers: migration robust z-score: higher = faster migration into the scratch; migration relative to mock: higher = more scratch area covered than mock; nuclei per well: higher = more cells in the well. Hit rule: 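Migration changed when robust z exceeds 2 or falls below -2 and mean nuclei number is at least 3300; otherwise not called changed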. Calls: active = migration changed; inactive = no migration change, or too few cells.
Shown is one part, drawn at random, of about 18,000 reagents tested. About 1,030 of all reagents (5.7%) were called active. 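Inactive calls also include pools with fewer than 3300 nuclei, whose migration was not assessed.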 Raw values are not corrected between plates. Unmarked entries are inactive.

no.	gene	migration robust z-score	migration class with cell-count check	migration relative to mock	nuclei per well, duplicate mean
1	TRIM48 (tripartite motif containing 48)	1.48	migration z between -2 and 2; enough cells	1.09	6136
2	CST3 (cystatin C)	2.06 (active)	migration z above 2; enough cells	1.42	5657
3	NTRK2 (neurotrophic receptor tyrosine kinase 2)	-0.13	migration z between -2 and 2; enough cells	0.78	5528
4	LMF2 (lipase maturation factor 2)	0.77	migration z between -2 and 2; enough cells	1.08	5368
5	TSC22D4 (TSC22 domain family member 4)	0.43	migration z between -2 and 2; enough cells	1	6418
6	MTSS1 (MTSS I-BAR domain containing 1)	-1.3	migration z between -2 and 2; enough cells	0.54	4880
7	RNF135 (ring finger protein 135)	-1.74	migration z between -2 and 2; enough cells	0.47	4618
8	IPCEF1 (interaction protein for cytohesin exchange factors 1)	-0.1	migration z between -2 and 2; enough cells	0.86	6354
9	NCOA6 (nuclear receptor coactivator 6)	-0.73	migration z between -2 and 2; enough cells	0.66	4998
10	TYW3 (tRNA-yW synthesizing protein 3 homolog)	-1.16	migration z between -2 and 2; enough cells	0.58	5812
11	UBQLN1 (ubiquilin 1)	-0.98	migration z between -2 and 2; enough cells	0.63	4718
12	KLHL15 (kelch like family member 15)	0.66	migration z between -2 and 2; enough cells	1.06	4473
13	FABP5 (fatty acid binding protein 5)	0.08	migration z between -2 and 2; enough cells	0.82	5757
14	GID4 (GID complex subunit 4 homolog)	1.15	migration z between -2 and 2; enough cells	1.18	6692
15	CXorf65 (chromosome X open reading frame 65)	-0.12	migration z between -2 and 2; enough cells	0.85	5131
16	BCR (BCR activator of RhoGEF and GTPase)	-1.14	migration z between -2 and 2; enough cells	0.58	4730
17	MGAT4C (MGAT4 family member C)	1.27	migration z between -2 and 2; enough cells	1.05	4577
18	RPS12 (ribosomal protein S12)	-1.72	migration z between -2 and 2; enough cells	0.44	4869
19	PRG4 (proteoglycan 4)	0.5	migration z between -2 and 2; enough cells	1.02	4948
20	SYPL1 (synaptophysin like 1)	1	migration z between -2 and 2; enough cells	1.14	5872
21	PSKH1 (protein serine kinase H1)	-0.6	migration z between -2 and 2; enough cells	0.69	5662
22	TIGD4 (tigger transposable element derived 4)	0.28	migration z between -2 and 2; enough cells	0.96	5832
23	RLBP1 (retinaldehyde binding protein 1)	-0.88	migration z between -2 and 2; enough cells	0.66	6885
